# The list shows a part of the results.
# B1: Aap brpt (Staphylococcus epidermidis) (protein)
# chain: VDGDPITSTEEIPFDKKREFDPNLAPGTEKVVQKGEPGTKTITTPTTKNPLTGEKVGEGEPTEKITKQPVDEIVHYGGEEIKTGHKDEFDPNAPKGSQTTQPGKPGVKNPDTGEVVTPPVDDVTKYGPVDGDPITSTEEIPFDKKREFDPNLAPGTEKVVQKGEPGTKTITTPTTKNPLTGEKVGEGEPTEKITKQPVDEIVHYGGEEIKPGHKDEFDPNAPKGSQEDVPGKPGVKNPDTGEVVTPPVDDVTKYGPVDGDSITSTEEIPFDKKREFDPNLAPGTEKVVQKGEPGTKTITTPTTKNPLTGEKVGEGEPTEKITKQPVDEIVHYGGEQIPQGHKDEFDPNAPVDSKTEVPGKPGVKNPDTGEVVTPPVDDVTKYGPVDGDSITSTEEIPFDKKREFDPNLAPGTEKVVQKGEPGTKTITTPTTKNPLTGEKVGEGKSTEKVTKQPVDEIVEYGPTK
# Columns and labels:
# Test in all cases: glycan array binding signal (z-score within array); higher = stronger binding
# Conditions in all cases: glycan notation: IUPAC condensed, linker removed
# [1] = biological target: Gal(b1-4)GlcNAc(b1-3)Gal(b1-4)GlcNAc(b1-6)[Gal(b1-3)]GalNAc
# Procedure, shortened: (§1)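 Arrays were curated from the Consortium for Functional Glycomics database, 3228 in total, and kept only where the protein sequence was available. Binding is expressed as a within-array Z-score. This score was averaged across arrays of the same protein sequence at different concentrations or buffers and across linkers, and negative values can be read as non-binding.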
# [2] = biological target: Gal(b1-4)GlcNAc(b1-3)Gal(b1-4)[Fuc(a1-3)]GlcNAc(b1-3)Gal(b1-4)[Fuc(a1-3)]GlcNAc
# Procedure, shortened: as §1
# [3] = biological target: Gal(b1-4)GlcNAc(b1-3)GalNAc
# Procedure, shortened: as §1
# [4] = biological target: Gal(b1-4)GlcNAc(b1-3)[Fuc(a1-3)GlcNAc(b1-6)]Gal(b1-4)Glc
# Procedure, shortened: as §1
# [5] = biological target: Gal(b1-4)GlcNAc(b1-3)[Gal(b1-4)GlcNAc(b1-6)]Gal(b1-4)GlcNAc
# Procedure, shortened: as §1
# [6] = biological target: Gal(b1-4)GlcNAc(b1-3)[GlcNAc(b1-6)]Gal(b1-4)GlcNAc
# Procedure, shortened: as §1
# [7] = biological target: Gal(b1-4)GlcNAc(b1-6)Gal(b1-4)GlcNAc
# Procedure, shortened: as §1
# [8] = biological target: Gal(b1-4)GlcNAc(b1-6)GalNAc
# Procedure, shortened: as §1
# [9] = biological target: Gal(b1-4)GlcNAc(b1-6)[Gal(b1-3)]GalNAc
# Procedure, shortened: as §1
# [10] = biological target: Gal(b1-4)GlcNAc(b1-6)[Gal(b1-4)GlcNAc(b1-3)]GalNAc
# Procedure, shortened: as §1
# Gal(b1-4)GlcNAc6P = biological target: Gal(b1-4)GlcNAc6P
# Procedure, shortened: as §1
# Gal(b1-6)Gal = biological target: Gal(b1-6)Gal
# Procedure, shortened: as §1
# Gal3S(b1-3)GalNAc = biological target: Gal3S(b1-3)GalNAc
# Procedure, shortened: as §1
# Gal3S(b1-3)GlcNAc = biological target: Gal3S(b1-3)GlcNAc
# Procedure, shortened: as §1
# [11] = biological target: Gal3S(b1-3)[Fuc(a1-4)]GlcNAc
# Procedure, shortened: as §1
# Gal3S(b1-4)Glc = biological target: Gal3S(b1-4)Glc
# Procedure, shortened: as §1
# Gal3S(b1-4)Glc6S = biological target: Gal3S(b1-4)Glc6S
# Procedure, shortened: as §1
# Gal3S(b1-4)GlcNAc = biological target: Gal3S(b1-4)GlcNAc
# Procedure, shortened: as §1
# [12] = biological target: Gal3S(b1-4)[Fuc(a1-3)]Glc6S
# Procedure, shortened: as §1
# [13] = biological target: Gal3S(b1-4)[Fuc(a1-3)]GlcNAc
# Procedure, shortened: as §1
# [14] = biological target: Gal3S(b1-4)[Fuc(a1-3)]GlcNAc6S
# Procedure, shortened: as §1
# Gal3S4S(b1-4)GlcNAc = biological target: Gal3S4S(b1-4)GlcNAc
# Procedure, shortened: as §1
# Gal3S6S(b1-4)GlcNAc = biological target: Gal3S6S(b1-4)GlcNAc
# Procedure, shortened: as §1
# Gal3S6S(b1-4)GlcNAc6S = biological target: Gal3S6S(b1-4)GlcNAc6S
# Procedure, shortened: as §1
# Gal4S(b1-4)GlcNAc = biological target: Gal4S(b1-4)GlcNAc
# Procedure, shortened: as §1
# Gal4S6S(b1-4)GlcNAc = biological target: Gal4S6S(b1-4)GlcNAc
# Procedure, shortened: as §1
# Gal6P(b1-4)GlcNAc = biological target: Gal6P(b1-4)GlcNAc
# Procedure, shortened: as §1
# Gal6S(b1-3)GlcNAc = biological target: Gal6S(b1-3)GlcNAc
# Procedure, shortened: as §1
# Gal6S(b1-3)GlcNAc6S = biological target: Gal6S(b1-3)GlcNAc6S
# Procedure, shortened: as §1
# Gal6S(b1-4)Glc = biological target: Gal6S(b1-4)Glc
# Procedure, shortened: as §1
# Gal6S(b1-4)Glc6S = biological target: Gal6S(b1-4)Glc6S
# Procedure, shortened: as §1
# Gal6S(b1-4)GlcNAc = biological target: Gal6S(b1-4)GlcNAc
# Procedure, shortened: as §1
# Gal6S(b1-4)GlcNAc6S = biological target: Gal6S(b1-4)GlcNAc6S
# Procedure, shortened: as §1
# GalNAc(a1-3)Gal = biological target: GalNAc(a1-3)Gal
# Procedure, shortened: as §1
# GalNAc(a1-3)GalNAc = biological target: GalNAc(a1-3)GalNAc
# Procedure, shortened: as §1
# [15] = biological target: GalNAc(a1-3)GalNAc(b1-3)Gal(a1-4)Gal(b1-4)Glc
# Procedure, shortened: as §1
# [16] = biological target: GalNAc(a1-3)GalNAc(b1-3)Gal(a1-4)Gal(b1-4)GlcNAc
# Procedure, shortened: as §1
binder,measurement,setting,value
B1,glycan array binding signal (z-score),[1],-0.384
same,glycan array binding signal (z-score),[2],0.953
same,glycan array binding signal (z-score),[3],-0.434
same,glycan array binding signal (z-score),[4],0.214
same,glycan array binding signal (z-score),[5],-0.811
same,glycan array binding signal (z-score),[6],0.867
same,glycan array binding signal (z-score),[7],0.69
same,glycan array binding signal (z-score),[8],-0.071
same,glycan array binding signal (z-score),[9],-0.818
same,glycan array binding signal (z-score),[10],-0.18
same,glycan array binding signal (z-score),Gal(b1-4)GlcNAc6P,0.45
same,glycan array binding signal (z-score),Gal(b1-6)Gal,0.447
same,glycan array binding signal (z-score),Gal3S(b1-3)GalNAc,0.101
same,glycan array binding signal (z-score),Gal3S(b1-3)GlcNAc,-0.319
same,glycan array binding signal (z-score),[11],-0.284
same,glycan array binding signal (z-score),Gal3S(b1-4)Glc,0.126
same,glycan array binding signal (z-score),Gal3S(b1-4)Glc6S,0.154
same,glycan array binding signal (z-score),Gal3S(b1-4)GlcNAc,-0.106
same,glycan array binding signal (z-score),[12],2.61
same,glycan array binding signal (z-score),[13],1.1
same,glycan array binding signal (z-score),[14],0.76
same,glycan array binding signal (z-score),Gal3S4S(b1-4)GlcNAc,-0.43
same,glycan array binding signal (z-score),Gal3S6S(b1-4)GlcNAc,0.723
same,glycan array binding signal (z-score),Gal3S6S(b1-4)GlcNAc6S,1.29
same,glycan array binding signal (z-score),Gal4S(b1-4)GlcNAc,-0.773
same,glycan array binding signal (z-score),Gal4S6S(b1-4)GlcNAc,0.138
same,glycan array binding signal (z-score),Gal6P(b1-4)GlcNAc,-0.135
same,glycan array binding signal (z-score),Gal6S(b1-3)GlcNAc,-0.868
same,glycan array binding signal (z-score),Gal6S(b1-3)GlcNAc6S,0.052
same,glycan array binding signal (z-score),Gal6S(b1-4)Glc,0.182
same,glycan array binding signal (z-score),Gal6S(b1-4)Glc6S,-1.5
same,glycan array binding signal (z-score),Gal6S(b1-4)GlcNAc,-0.551
same,glycan array binding signal (z-score),Gal6S(b1-4)GlcNAc6S,0.862
same,glycan array binding signal (z-score),GalNAc(a1-3)Gal,0.612
same,glycan array binding signal (z-score),GalNAc(a1-3)GalNAc,1.13
same,glycan array binding signal (z-score),[15],0.712
same,glycan array binding signal (z-score),[16],0.106

# Some of the entries so far, with tabs.
binder	measurement	setting	value
B1	glycan array binding signal (z-score)	[7]	0.69
same	glycan array binding signal (z-score)	Gal3S4S(b1-4)GlcNAc	-0.43

# From the supplement of paper PMC8728848
